{"source": "PubChem BioAssay AID1259405 – NCATS | 2018", "aim": "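Knock-downs that lift recombinant protein yield in hamster ovary cells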 (primary screen)", "system": "Chinese hamster CHO-K1 ovary cells with stable secreted eGFP expression", "knock-down reagent": "single siRNA against mouse genes, 0.8 pmol siRNA per well (2 µl of 400 nM stock)", "duration": "3 days", "measurement": "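Percent of the per-plate non-targeting control median for intracellular GFP per well by laser scanning cytometry and for cell viability by ATP luminescence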", "direction": "GFP, % of control: higher = more GFP per well, higher productivity; viability (ATP), % of control: higher = more viable cells (more ATP)", "rule for the call": "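Called active when intracellular GFP, relative to negative control, is at or above 120%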", "note": "The deposit covers about 50,000 reagents; shown is a random part of them. Over the whole deposit, about 4,000 (8%) got an active call. 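Mouse siRNA library applied to hamster cells; one well for each siRNA.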 The numbers tell different reagents against one gene apart. Reagent sequences are not shown."}
{"target gene":"Psma2","reagent":1,"GFP, % of control":13.8,"viability (ATP), % of control":4.49,"activity call":"inactive"}
{"target gene":"Psma2","reagent":2,"GFP, % of control":68.9,"viability (ATP), % of control":54.8,"activity call":"inactive"}
{"target gene":"Psma2","reagent":3,"GFP, % of control":54.9,"viability (ATP), % of control":68.1,"activity call":"inactive"}
{"target gene":"Mrpl47","reagent":1,"GFP, % of control":76.6,"viability (ATP), % of control":83.1,"activity call":"inactive"}
{"target gene":"Mrpl47","reagent":2,"GFP, % of control":86.1,"viability (ATP), % of control":96.2,"activity call":"inactive"}
{"target gene":"Mrpl47","reagent":3,"GFP, % of control":91.5,"viability (ATP), % of control":57.8,"activity call":"inactive"}
{"target gene":"Pi4k2a","reagent":1,"GFP, % of control":74.4,"viability (ATP), % of control":66.8,"activity call":"inactive"}
{"target gene":"Armc9","reagent":1,"GFP, % of control":135,"viability (ATP), % of control":60.6,"activity call":"active"}
{"target gene":"Armc9","reagent":2,"GFP, % of control":116,"viability (ATP), % of control":84,"activity call":"inactive"}
{"target gene":"Armc9","reagent":3,"GFP, % of control":76.8,"viability (ATP), % of control":78.8,"activity call":"inactive"}
{"target gene":"Chrna5","reagent":1,"GFP, % of control":23.7,"viability (ATP), % of control":51.3,"activity call":"inactive"}
{"target gene":"Chrna5","reagent":2,"GFP, % of control":168,"viability (ATP), % of control":99,"activity call":"active"}
{"target gene":"Chrna5","reagent":3,"GFP, % of control":23.3,"viability (ATP), % of control":24.2,"activity call":"inactive"}
{"target gene":"Pura","reagent":1,"GFP, % of control":133,"viability (ATP), % of control":81.9,"activity call":"active"}
{"target gene":"Pura","reagent":2,"GFP, % of control":83.5,"viability (ATP), % of control":93,"activity call":"inactive"}
{"target gene":"Pik3cb","reagent":1,"GFP, % of control":32.1,"viability (ATP), % of control":57.9,"activity call":"inactive"}
{"target gene":"Wdr83","reagent":1,"GFP, % of control":63.1,"viability (ATP), % of control":58.2,"activity call":"inactive"}
{"target gene":"Wdr83","reagent":2,"GFP, % of control":91.7,"viability (ATP), % of control":76.7,"activity call":"inactive"}
{"target gene":"Wdr83","reagent":3,"GFP, % of control":71,"viability (ATP), % of control":67.3,"activity call":"inactive"}

A run of entries taken from the entries so far, as a working copy:
{"target gene":"Chrna5","reagent":1,"GFP, % of control":23.7,"viability (ATP), % of control":51.3,"activity call":"inactive"}
{"target gene":"Chrna5","reagent":2,"GFP, % of control":168,"viability (ATP), % of control":99,"activity call":"active"}
{"target gene":"Chrna5","reagent":3,"GFP, % of control":23.3,"viability (ATP), % of control":24.2,"activity call":"inactive"}
{"target gene":"Pura","reagent":1,"GFP, % of control":133,"viability (ATP), % of control":81.9,"activity call":"active"}
{"target gene":"Pura","reagent":2,"GFP, % of control":83.5,"viability (ATP), % of control":93,"activity call":"inactive"}
{"target gene":"Pik3cb","reagent":1,"GFP, % of control":32.1,"viability (ATP), % of control":57.9,"activity call":"inactive"}

Further reagents follow:
{"target gene":"Txnl4b","reagent":1,"GFP, % of control":58.7,"viability (ATP), % of control":58,"activity call":"inactive"}
{"target gene":"Txnl4b","reagent":2,"GFP, % of control":100,"viability (ATP), % of control":77.7,"activity call":"inactive"}
{"target gene":"Txnl4b","reagent":3,"GFP, % of control":69.4,"viability (ATP), % of control":98.8,"activity call":"inactive"}
{"target gene":"Calcrl","reagent":1,"GFP, % of control":26.7,"viability (ATP), % of control":41.3,"activity call":"inactive"}
{"target gene":"Calcrl","reagent":2,"GFP, % of control":113,"viability (ATP), % of control":82.5,"activity call":"inactive"}
{"target gene":"Calcrl","reagent":3,"GFP, % of control":101,"viability (ATP), % of control":61,"activity call":"inactive"}
{"target gene":"Foxi1","reagent":1,"GFP, % of control":82.2,"viability (ATP), % of control":87.9,"activity call":"inactive"}
{"target gene":"Foxi1","reagent":2,"GFP, % of control":53.7,"viability (ATP), % of control":53.8,"activity call":"inactive"}
{"target gene":"Pabpc2","reagent":1,"GFP, % of control":77,"viability (ATP), % of control":59.2,"activity call":"inactive"}
{"target gene":"Pabpc2","reagent":2,"GFP, % of control":83.4,"viability (ATP), % of control":62.7,"activity call":"inactive"}
{"target gene":"Pabpc2","reagent":3,"GFP, % of control":86.8,"viability (ATP), % of control":76.1,"activity call":"inactive"}
{"target gene":"Or13p3","reagent":1,"GFP, % of control":69.5,"viability (ATP), % of control":58.9,"activity call":"inactive"}
{"target gene":"Or13p3","reagent":2,"GFP, % of control":44.4,"viability (ATP), % of control":62,"activity call":"inactive"}
{"target gene":"Or13p3","reagent":3,"GFP, % of control":192,"viability (ATP), % of control":54,"activity call":"active"}
{"target gene":"Sftpb","reagent":1,"GFP, % of control":179,"viability (ATP), % of control":93.8,"activity call":"active"}
{"target gene":"Sftpb","reagent":2,"GFP, % of control":93,"viability (ATP), % of control":67.8,"activity call":"inactive"}
{"target gene":"Sftpb","reagent":3,"GFP, % of control":68.7,"viability (ATP), % of control":64.7,"activity call":"inactive"}
{"target gene":"Lyl1","reagent":1,"GFP, % of control":62.5,"viability (ATP), % of control":43.6,"activity call":"inactive"}
{"target gene":"Lyl1","reagent":2,"GFP, % of control":80.4,"viability (ATP), % of control":68.8,"activity call":"inactive"}
{"target gene":"Lyl1","reagent":3,"GFP, % of control":76.4,"viability (ATP), % of control":85.7,"activity call":"inactive"}
{"target gene":"Kremen2","reagent":1,"GFP, % of control":110,"viability (ATP), % of control":65.4,"activity call":"inactive"}
{"target gene":"Kremen2","reagent":2,"GFP, % of control":77.1,"viability (ATP), % of control":68.5,"activity call":"inactive"}
{"target gene":"Kremen2","reagent":3,"GFP, % of control":70.4,"viability (ATP), % of control":72.8,"activity call":"inactive"}
